{"sequences": {"note": "Sequences of proteins named here, by UniProt entry; tags and fusion partners are left off.", "UniProt Q93034": "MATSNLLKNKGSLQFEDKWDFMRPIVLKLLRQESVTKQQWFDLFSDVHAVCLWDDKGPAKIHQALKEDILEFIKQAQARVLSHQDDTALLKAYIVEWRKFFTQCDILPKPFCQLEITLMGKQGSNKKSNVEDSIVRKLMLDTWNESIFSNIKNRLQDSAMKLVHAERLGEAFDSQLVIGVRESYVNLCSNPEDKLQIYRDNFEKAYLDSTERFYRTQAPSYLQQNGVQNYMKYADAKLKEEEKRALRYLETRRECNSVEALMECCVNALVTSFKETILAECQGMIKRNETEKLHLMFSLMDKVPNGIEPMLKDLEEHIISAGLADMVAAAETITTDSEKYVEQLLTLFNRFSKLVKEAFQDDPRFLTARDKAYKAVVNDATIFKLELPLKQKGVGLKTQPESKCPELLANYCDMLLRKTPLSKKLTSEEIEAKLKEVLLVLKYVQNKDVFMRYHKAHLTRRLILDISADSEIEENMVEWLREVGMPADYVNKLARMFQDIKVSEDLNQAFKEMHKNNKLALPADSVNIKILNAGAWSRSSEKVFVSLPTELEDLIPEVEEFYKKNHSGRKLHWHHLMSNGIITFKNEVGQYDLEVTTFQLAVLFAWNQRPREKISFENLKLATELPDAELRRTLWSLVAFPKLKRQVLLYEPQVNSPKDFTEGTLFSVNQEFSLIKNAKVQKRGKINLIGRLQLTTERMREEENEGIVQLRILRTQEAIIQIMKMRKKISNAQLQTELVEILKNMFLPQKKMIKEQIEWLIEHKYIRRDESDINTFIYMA"}, "source": "paper PMC11898743", "target": "HIS-tagged cullin5 (HIS-Cul5), residues 1-780 (UniProt Q93034)", "assay": "co-purification of co-expressed proteins; HIS-Cul5/Rbx2 coexpressed in E. coli; Ni-Sepharose by the HIS tag of Cul5, then Superdex 200 gel filtration", "note": "These are yes or no findings as the source states them, for the method shown. Some results given as binding are weak or reduced against the parent protein; the word gives no strength."}
{"substance": "Rbx2, residues 1-113 (from UniProt Q9UBF6-1 1-113)", "values": [{"measurement": "binding", "result": "binds"}]}
